Results on 32 targets are retold here after the supplement of paper PMC10849652.

Protein sequences, listed by entry. Tags and fused reporters are not part of them. Lines headed by an entry give the natural chain unless they say otherwise; changes in a name come on top.
UniProt O95479: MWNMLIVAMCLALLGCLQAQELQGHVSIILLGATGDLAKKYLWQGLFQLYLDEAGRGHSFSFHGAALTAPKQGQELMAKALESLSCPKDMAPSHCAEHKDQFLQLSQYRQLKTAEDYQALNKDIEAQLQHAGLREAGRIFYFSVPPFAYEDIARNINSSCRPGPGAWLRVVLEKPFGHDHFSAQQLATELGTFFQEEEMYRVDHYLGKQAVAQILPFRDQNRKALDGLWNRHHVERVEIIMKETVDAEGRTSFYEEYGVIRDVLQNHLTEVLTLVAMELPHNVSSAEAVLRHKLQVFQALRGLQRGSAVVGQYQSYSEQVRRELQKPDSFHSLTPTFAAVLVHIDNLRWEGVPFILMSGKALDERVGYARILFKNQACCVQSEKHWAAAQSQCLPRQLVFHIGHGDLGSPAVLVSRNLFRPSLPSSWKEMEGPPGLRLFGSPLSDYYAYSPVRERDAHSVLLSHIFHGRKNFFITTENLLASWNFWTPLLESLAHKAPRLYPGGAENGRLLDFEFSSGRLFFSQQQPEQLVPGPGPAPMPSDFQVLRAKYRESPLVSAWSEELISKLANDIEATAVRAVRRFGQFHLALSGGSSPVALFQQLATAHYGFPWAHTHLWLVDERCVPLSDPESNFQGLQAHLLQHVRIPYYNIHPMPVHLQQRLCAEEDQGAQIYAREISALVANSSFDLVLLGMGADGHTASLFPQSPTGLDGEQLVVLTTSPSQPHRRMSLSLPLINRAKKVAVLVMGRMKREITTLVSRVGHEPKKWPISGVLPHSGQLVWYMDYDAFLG
UniProt Q8N442: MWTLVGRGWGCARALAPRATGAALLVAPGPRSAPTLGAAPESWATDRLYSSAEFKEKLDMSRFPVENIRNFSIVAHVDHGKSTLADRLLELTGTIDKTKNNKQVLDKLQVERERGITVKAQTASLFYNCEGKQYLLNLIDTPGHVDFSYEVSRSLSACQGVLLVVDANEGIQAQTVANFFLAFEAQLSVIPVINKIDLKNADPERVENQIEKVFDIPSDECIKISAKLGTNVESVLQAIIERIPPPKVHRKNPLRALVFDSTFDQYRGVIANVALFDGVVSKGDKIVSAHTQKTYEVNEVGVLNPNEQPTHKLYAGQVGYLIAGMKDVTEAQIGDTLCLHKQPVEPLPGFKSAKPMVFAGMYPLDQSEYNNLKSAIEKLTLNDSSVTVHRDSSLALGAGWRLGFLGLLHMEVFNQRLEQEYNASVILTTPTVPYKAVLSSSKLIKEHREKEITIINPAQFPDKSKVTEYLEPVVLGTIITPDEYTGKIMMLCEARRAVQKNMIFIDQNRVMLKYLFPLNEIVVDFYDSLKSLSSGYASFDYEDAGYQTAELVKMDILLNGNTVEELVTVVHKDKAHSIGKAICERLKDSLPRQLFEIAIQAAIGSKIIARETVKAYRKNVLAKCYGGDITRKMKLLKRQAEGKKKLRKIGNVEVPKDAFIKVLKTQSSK
UniProt Q96CS2: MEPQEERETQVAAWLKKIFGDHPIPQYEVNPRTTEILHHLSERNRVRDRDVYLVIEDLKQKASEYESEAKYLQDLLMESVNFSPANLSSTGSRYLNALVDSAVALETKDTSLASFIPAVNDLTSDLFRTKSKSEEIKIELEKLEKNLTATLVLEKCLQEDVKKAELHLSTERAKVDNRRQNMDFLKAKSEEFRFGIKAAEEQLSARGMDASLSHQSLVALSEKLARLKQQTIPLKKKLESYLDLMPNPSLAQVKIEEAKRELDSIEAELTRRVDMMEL
UniProt P69892: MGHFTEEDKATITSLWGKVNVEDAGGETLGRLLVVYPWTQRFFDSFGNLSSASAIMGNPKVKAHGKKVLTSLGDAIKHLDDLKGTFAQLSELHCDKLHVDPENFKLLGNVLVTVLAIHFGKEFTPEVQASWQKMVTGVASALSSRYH
UniProt P42357: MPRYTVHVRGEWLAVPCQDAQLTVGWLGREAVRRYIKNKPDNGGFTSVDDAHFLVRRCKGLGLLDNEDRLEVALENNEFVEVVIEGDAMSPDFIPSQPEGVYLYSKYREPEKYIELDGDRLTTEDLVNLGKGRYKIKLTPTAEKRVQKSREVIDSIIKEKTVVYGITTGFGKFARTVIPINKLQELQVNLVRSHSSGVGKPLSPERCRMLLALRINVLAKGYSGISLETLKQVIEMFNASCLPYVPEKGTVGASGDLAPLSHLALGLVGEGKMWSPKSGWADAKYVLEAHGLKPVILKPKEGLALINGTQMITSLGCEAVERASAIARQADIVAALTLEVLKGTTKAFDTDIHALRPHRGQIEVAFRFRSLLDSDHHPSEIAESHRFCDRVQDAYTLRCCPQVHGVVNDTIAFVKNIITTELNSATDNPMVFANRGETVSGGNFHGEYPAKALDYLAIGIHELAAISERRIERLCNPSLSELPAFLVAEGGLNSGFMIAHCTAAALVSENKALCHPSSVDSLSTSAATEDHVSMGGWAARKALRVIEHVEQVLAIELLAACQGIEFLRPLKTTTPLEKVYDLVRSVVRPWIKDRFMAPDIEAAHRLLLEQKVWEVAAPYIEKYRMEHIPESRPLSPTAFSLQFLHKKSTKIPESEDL
UniProt Q13547, whole entry, looked up: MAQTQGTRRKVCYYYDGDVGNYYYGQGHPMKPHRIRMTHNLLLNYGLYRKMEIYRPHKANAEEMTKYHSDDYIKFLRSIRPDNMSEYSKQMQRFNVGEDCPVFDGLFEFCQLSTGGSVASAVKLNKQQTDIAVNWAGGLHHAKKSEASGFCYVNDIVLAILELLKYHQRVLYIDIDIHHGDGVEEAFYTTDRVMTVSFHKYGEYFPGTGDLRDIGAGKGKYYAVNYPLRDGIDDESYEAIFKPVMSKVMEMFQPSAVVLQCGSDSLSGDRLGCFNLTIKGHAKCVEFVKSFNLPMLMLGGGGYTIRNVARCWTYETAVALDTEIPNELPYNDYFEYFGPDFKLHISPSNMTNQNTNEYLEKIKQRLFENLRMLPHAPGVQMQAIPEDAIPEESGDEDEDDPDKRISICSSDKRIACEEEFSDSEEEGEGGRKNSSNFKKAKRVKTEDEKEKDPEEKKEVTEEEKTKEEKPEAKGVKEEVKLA
UniProt P49590: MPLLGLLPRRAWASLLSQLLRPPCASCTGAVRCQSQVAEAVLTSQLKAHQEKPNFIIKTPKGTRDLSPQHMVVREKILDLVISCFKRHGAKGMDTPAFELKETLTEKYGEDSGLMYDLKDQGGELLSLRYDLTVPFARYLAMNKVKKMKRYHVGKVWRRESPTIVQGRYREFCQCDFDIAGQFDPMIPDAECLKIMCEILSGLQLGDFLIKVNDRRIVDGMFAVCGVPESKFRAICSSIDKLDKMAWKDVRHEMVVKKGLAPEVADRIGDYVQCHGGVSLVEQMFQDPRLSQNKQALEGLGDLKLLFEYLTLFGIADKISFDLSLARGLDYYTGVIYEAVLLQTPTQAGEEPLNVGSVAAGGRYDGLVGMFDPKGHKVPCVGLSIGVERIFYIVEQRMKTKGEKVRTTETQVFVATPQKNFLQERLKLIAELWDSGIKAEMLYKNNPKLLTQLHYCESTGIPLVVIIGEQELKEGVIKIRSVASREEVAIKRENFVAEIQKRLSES
UniProt P55084: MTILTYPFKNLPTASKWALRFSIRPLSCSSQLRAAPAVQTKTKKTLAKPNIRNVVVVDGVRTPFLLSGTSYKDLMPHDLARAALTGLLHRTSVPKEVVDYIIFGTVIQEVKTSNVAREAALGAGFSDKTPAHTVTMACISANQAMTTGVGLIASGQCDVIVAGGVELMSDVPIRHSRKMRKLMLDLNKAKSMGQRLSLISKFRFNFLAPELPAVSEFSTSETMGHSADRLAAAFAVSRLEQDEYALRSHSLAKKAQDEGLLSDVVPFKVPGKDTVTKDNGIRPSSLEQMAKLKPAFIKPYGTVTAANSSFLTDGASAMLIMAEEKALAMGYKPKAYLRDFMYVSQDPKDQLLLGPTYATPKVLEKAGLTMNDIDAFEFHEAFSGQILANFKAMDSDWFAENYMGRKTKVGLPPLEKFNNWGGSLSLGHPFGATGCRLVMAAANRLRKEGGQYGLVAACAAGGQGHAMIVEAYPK
UniProt Q9Y4H4: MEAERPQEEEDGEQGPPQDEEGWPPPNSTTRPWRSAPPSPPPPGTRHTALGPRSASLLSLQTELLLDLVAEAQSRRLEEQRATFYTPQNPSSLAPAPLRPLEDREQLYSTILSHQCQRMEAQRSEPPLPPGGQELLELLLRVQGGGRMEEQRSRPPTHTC
UniProt Q9Y5Q9: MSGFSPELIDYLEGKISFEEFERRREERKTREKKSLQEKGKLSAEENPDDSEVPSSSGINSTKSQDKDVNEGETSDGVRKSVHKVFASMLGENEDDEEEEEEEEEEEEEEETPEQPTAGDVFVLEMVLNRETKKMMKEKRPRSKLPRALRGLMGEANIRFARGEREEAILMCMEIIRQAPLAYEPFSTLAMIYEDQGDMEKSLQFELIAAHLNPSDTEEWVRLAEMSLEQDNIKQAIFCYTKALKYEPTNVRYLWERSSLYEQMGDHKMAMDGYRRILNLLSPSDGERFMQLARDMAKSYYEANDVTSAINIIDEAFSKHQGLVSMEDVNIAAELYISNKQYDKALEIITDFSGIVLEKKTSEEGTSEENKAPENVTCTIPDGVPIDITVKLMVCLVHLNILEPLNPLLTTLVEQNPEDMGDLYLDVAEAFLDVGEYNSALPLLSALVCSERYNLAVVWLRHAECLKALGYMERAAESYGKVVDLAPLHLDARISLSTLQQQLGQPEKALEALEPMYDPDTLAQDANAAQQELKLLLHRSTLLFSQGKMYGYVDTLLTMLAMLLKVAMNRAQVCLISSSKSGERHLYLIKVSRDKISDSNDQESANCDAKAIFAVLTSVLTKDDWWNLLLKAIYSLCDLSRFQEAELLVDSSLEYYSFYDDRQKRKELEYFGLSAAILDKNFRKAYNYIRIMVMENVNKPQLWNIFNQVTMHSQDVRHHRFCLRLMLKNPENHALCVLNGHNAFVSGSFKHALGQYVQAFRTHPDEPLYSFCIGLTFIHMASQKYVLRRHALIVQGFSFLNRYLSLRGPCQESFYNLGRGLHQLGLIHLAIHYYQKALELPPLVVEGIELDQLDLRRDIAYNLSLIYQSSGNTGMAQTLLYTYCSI
UniProt P40939: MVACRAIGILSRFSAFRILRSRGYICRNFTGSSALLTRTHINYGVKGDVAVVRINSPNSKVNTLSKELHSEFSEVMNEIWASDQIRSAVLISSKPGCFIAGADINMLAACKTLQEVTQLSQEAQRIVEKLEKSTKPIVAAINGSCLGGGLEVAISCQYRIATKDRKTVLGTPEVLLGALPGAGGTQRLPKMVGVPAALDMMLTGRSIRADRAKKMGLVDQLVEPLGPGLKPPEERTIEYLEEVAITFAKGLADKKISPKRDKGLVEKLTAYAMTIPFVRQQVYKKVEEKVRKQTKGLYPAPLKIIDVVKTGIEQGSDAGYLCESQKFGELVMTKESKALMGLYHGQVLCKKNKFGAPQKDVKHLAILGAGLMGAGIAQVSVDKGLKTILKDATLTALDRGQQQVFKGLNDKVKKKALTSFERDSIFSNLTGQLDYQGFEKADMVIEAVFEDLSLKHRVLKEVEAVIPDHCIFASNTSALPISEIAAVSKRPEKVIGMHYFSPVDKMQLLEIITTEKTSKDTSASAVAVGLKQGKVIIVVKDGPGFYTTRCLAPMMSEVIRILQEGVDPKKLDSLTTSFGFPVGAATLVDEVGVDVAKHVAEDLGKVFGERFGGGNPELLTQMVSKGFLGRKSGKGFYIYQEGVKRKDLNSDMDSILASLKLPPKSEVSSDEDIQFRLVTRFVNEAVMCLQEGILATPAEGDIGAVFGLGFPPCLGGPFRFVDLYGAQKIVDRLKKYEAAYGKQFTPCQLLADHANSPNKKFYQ
UniProt Q92769, whole entry, looked up: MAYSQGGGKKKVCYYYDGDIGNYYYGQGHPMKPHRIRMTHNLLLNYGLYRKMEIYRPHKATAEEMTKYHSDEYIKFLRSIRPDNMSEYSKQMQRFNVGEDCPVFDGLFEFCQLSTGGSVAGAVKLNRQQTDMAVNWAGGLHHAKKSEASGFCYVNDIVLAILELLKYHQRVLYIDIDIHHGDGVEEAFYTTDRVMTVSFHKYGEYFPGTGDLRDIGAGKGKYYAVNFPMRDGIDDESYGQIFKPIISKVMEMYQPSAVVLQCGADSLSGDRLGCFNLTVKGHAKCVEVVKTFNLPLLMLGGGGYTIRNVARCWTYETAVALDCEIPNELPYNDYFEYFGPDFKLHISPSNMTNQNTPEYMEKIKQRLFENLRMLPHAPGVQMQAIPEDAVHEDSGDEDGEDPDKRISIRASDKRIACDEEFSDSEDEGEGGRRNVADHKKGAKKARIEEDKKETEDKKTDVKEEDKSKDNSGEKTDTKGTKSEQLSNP
UniProt Q6Y1H2: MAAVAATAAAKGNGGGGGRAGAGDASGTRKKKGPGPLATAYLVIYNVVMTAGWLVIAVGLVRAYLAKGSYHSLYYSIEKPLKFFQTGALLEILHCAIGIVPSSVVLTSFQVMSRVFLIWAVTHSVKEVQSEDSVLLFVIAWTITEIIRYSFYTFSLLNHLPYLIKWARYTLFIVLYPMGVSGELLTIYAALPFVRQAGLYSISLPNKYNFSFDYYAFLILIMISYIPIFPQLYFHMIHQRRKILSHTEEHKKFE

The other results are listed elsewhere or left out.

Compound in one experiment: O=C(CCCCCCC(=O)Nc1ccccc1)NO [vorinostat]
Nature of the experiment: log2 fold change, soluble protein after heating vs DMSO (PISA); higher = thermal stabilisation; K562 lysate, 10 uM; active = over 0.2 and 3.5 SD of the protein, either way, in both replicates (recomputed). Put shortly:
(§1)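 A 30 min treatment with 10 μM compound was applied to crude K562 extract at 1 mg/mL protein in PBS pH 7.4 with 1 mM MgCl2. Heating for 3 min spanned 48°C-58°C, after which aliquots were pooled, adjusted to 0.5% NP-40 at 4°C and spun at 21,000xg for 90 min. TMTpro 16plex LC-MS/MS of the supernatant, with channel sums equalised, gave values recorded as log-two fold change in thermal stability against solvent controls, from duplicates.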
Take H6PD (UniProt O95479): the log2 fold change is inactive: 0.102. As for GRM5 (UniProt P41594), the log2 fold change was inactive: -0.143. For the target GYG2 (UniProt O15488), the log2 fold change was inactive: -0.079. Consider GUK1 isoform 2 (UniProt Q16774), for which the log2 fold change is inactive: -0.105. Take GSS (UniProt P48637): the log2 fold change is inactive: 0.116. With GUF1 (UniProt Q8N442), the log2 fold change is inactive: -0.174. In the case of GRIPAP1 (UniProt Q4V328), the log2 fold change is inactive: 0.049.

Compound in another experiment: O=C(O)c1ccc2c(c1)nc(Nc1cccc(Cl)c1)c1ccncc12 [silmitasertib]
The experiment is described as above. Put shortly: as §1
Take HAUS1 (UniProt Q96CS2): the log2 fold change is inactive: 0.02. On the same count and under the same terms, the figure for GRAMD1A (UniProt Q96CP6) is inactive: 0.024; for GSTCD (UniProt Q8NEC7) it is inactive: 0.024; for H4C1 (UniProt P62805) it is inactive: 0.007. Turning to GPX4 (UniProt P36969), the log2 fold change is inactive: 0.017.

Turning to HBG2 (UniProt P69892), the log2 fold change was inactive: -0.039. Consider GSDME (UniProt O60443), for which the log2 fold change is inactive: 0.062. The same measure, in the same setting: the figure for H1-2 (UniProt P16403) is inactive: -0.037; for HAL (UniProt P42357) it is inactive: -0.497; for HDAC1 (UniProt Q13547) it is inactive: -0.008. On the same count and under the same terms, next, HARS2 (UniProt P49590): inactive: 0.147; HADHB (UniProt P55084): inactive: -0.033. With HDAC8 (UniProt Q9BY41), the log2 fold change was inactive: 0.03.

For the target H3-3A (UniProt P84243), the log2 fold change was inactive: 0. On to GTF3C2 (UniProt Q8WUA4), for which the log2 fold change was inactive: 0.024.

In the case of GSTM2 (UniProt P28161), the log2 fold change was active: 0.378. The same measure, in the same setting: next, GPSM3 (UniProt Q9Y4H4): inactive: 0.014; HAGH isoform 2 (UniProt Q16775): inactive: -0.004; GTF3C3 (UniProt Q9Y5Q9): inactive: 0.018. With HADHA (UniProt P40939), the log2 fold change is inactive: -0.026. Take GUCD1 isoform 3 (UniProt Q96NT3): the log2 fold change was inactive: 0.121. Regarding HDAC2 (UniProt Q92769), the log2 fold change is inactive: -0.002. HACD2 (UniProt Q6Y1H2): the log2 fold change was inactive: 0.015. For GTF2H2 (UniProt Q13888), the log2 fold change was inactive: 0.041.

As for GRN (UniProt P28799), the log2 fold change was inactive: -0.036. For the target H6PD (UniProt O95479), the log2 fold change was inactive: -0.004. Turning to GRM5 (UniProt P41594), the log2 fold change was inactive: 0.209.

Consider GYG2 (UniProt O15488), for which the log2 fold change is inactive: -0.027. Regarding GUK1 isoform 2 (UniProt Q16774), the log2 fold change is inactive: 0. For GSS (UniProt P48637), the log2 fold change was inactive: -0.003. Consider GUF1 (UniProt Q8N442), for which the log2 fold change was inactive: 0.008.

In the case of GRIPAP1 (UniProt Q4V328), the log2 fold change is inactive: 0.022.
